Results deposited as PubChem BioAssay AID743121 (NCATS, 2013)
The whole screen tested about 26,000 reagents; below is a random part of them. 167 of them (0.63%) were called active. 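Calls are per gene from RSA p-values that are not deposited; an individual active-marked siRNA can sensitise only weakly.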 Reagents against one gene are numbered here. Further read-outs or replicates are left out here. Reagent sequences are not shown.

Screen: 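Knock-downs that sensitise breast cancer cells to camptothecin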 (primary screen)
Cells: MDA-MB-231 cells, a human breast cancer line
Reagents: single siRNA against human genes, 20 nM siRNA (0.8 pmol per well)
Timing: 120 h (drug added 48 h after transfection, read 72 h later)
Challenge: camptothecin 20 nM (about EC30) for 72 h; vehicle 0.1% DMSO in parallel plates
Detection: 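Cell viability by ATP luminescence (CellTiter-Glo) as % of non-targeting siRNA wells, and the log2 ratio of viability without drug over viability with camptothecin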
Scale: log2 vehicle/camptothecin viability: higher = stronger sensitisation to camptothecin; viability with camptothecin: higher = more viable cells
Call rule: 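Active genes have an RSA gene-level p-value below 0.001, computed from the ratios of their separate siRNAs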

| Target gene | reagent | log2 vehicle/camptothecin viability | viability with camptothecin (% of control) | call |
| --- | --- | --- | --- | --- |
| KRT1 (keratin 1) | 1 | -0.244 | 75.6 | inactive |
| KRT1 (keratin 1) | 2 | -0.718 | 77.6 | inactive |
| KRT1 (keratin 1) | 3 | -0.24 | 106 | inactive |
| KRT1 (keratin 1) | 4 | -0.0958 | 74.6 | inactive |
| MRGPRX3 (MAS related GPR family member X3) | 1 | -0.0327 | 92.6 | inactive |
| MRGPRX3 (MAS related GPR family member X3) | 2 | 0.509 | 58.9 | inactive |
| MRGPRX3 (MAS related GPR family member X3) | 3 | -0.0118 | 89.1 | inactive |
| MRGPRX3 (MAS related GPR family member X3) | 4 | -0.0265 | 108 | inactive |
| PPIL2 (peptidylprolyl isomerase like 2) | 1 | 0.781 | 47.1 | inactive |
| PPIL2 (peptidylprolyl isomerase like 2) | 2 | -0.0411 | 68.6 | inactive |
| PPIL2 (peptidylprolyl isomerase like 2) | 3 | 0.615 | 42.5 | inactive |
| PPIL2 (peptidylprolyl isomerase like 2) | 4 | -0.267 | 52.6 | inactive |
| MTMR3 (myotubularin related protein 3) | 1 | 0.257 | 58.7 | inactive |
| MTMR3 (myotubularin related protein 3) | 2 | -0.203 | 111 | inactive |
| MTMR3 (myotubularin related protein 3) | 3 | 0.101 | 54.7 | inactive |
| MTMR3 (myotubularin related protein 3) | 4 | 0.0367 | 78.3 | inactive |
| ASGR2 (asialoglycoprotein receptor 2) | 1 | -0.387 | 94.1 | inactive |
| ASGR2 (asialoglycoprotein receptor 2) | 2 | 0.0412 | 54.3 | inactive |
| ASGR2 (asialoglycoprotein receptor 2) | 3 | -0.177 | 93.6 | inactive |

A stretch of the results above, as a working copy:
| Target gene | reagent | log2 vehicle/camptothecin viability | viability with camptothecin (% of control) | call |
| --- | --- | --- | --- | --- |
| PPIL2 (peptidylprolyl isomerase like 2) | 2 | -0.0411 | 68.6 | inactive |
| PPIL2 (peptidylprolyl isomerase like 2) | 3 | 0.615 | 42.5 | inactive |
| PPIL2 (peptidylprolyl isomerase like 2) | 4 | -0.267 | 52.6 | inactive |
| MTMR3 (myotubularin related protein 3) | 1 | 0.257 | 58.7 | inactive |
| MTMR3 (myotubularin related protein 3) | 2 | -0.203 | 111 | inactive |
| MTMR3 (myotubularin related protein 3) | 3 | 0.101 | 54.7 | inactive |

Next records follow:
| Target gene | reagent | log2 vehicle/camptothecin viability | viability with camptothecin (% of control) | call |
| --- | --- | --- | --- | --- |
| XRCC5 (X-ray repair cross complementing 5) | 1 | -0.231 | 112 | inactive |
| XRCC5 (X-ray repair cross complementing 5) | 2 | 0.258 | 9.97 | inactive |
| XRCC5 (X-ray repair cross complementing 5) | 3 | -0.0384 | 90.9 | inactive |
| XRCC5 (X-ray repair cross complementing 5) | 4 | 0.544 | 52.5 | inactive |
| BTRC | 1 | -0.363 | 117 | inactive |
| BTRC | 2 | 0.683 | 29.4 | inactive |
| BTRC | 3 | -0.132 | 75.5 | inactive |
| BTRC | 4 | -0.232 | 67.7 | inactive |
| KIF26B (kinesin family member 26B) | 1 | -0.181 | 38.1 | inactive |
| KIF26B (kinesin family member 26B) | 2 | -0.625 | 102 | inactive |
| KIF26B (kinesin family member 26B) | 3 | 0.257 | 64.6 | inactive |
| KIF26B (kinesin family member 26B) | 4 | -0.26 | 90.5 | inactive |
| PDGFD (platelet derived growth factor D) | 1 | 0.175 | 67.4 | inactive |
| PDGFD (platelet derived growth factor D) | 2 | -0.136 | 44.4 | inactive |
| PDGFD (platelet derived growth factor D) | 3 | -0.0949 | 40.4 | inactive |
| TMC5 (transmembrane channel like 5) | 1 | -0.0444 | 43.5 | inactive |
| TMC5 (transmembrane channel like 5) | 2 | -0.369 | 76.5 | inactive |
| TMC5 (transmembrane channel like 5) | 3 | 2.15 | 12.4 | inactive |
| TMC5 (transmembrane channel like 5) | 4 | -0.406 | 82.9 | inactive |
| TFAM (transcription factor A, mitochondrial) | 1 | -0.000123 | 103 | inactive |
| TFAM (transcription factor A, mitochondrial) | 2 | -0.436 | 67.9 | inactive |
| TFAM (transcription factor A, mitochondrial) | 3 | -0.2 | 89.6 | inactive |
| TFAM (transcription factor A, mitochondrial) | 4 | -0.438 | 68.7 | inactive |
| CCDC28A (coiled-coil domain containing 28A) | 1 | -0.155 | 85.3 | inactive |
| CCDC28A (coiled-coil domain containing 28A) | 2 | -0.499 | 50.3 | inactive |
| CCDC28A (coiled-coil domain containing 28A) | 3 | -0.152 | 69.5 | inactive |
| CCDC28A (coiled-coil domain containing 28A) | 4 | 0.439 | 48.7 | inactive |
